PubChem BioAssay AID1224830 | NIAID | 2016

Assay: 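Genes whose knock-down alters the TNF-alpha reporter response to LPS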 (primary screen)
System: human THP-1 monocytic leukaemia cells, TNF dual-luciferase reporter clone, PMA-differentiated to macrophage-like cells
Reagents: siRNA pool against human genes, 50 nM
Duration: LPS for 4 h, given about 3 days after siRNA transfection
Treatment: bacterial LPS (TLR4 ligand), 10 ng/ml
Read-out: 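TNF firefly reporter luminescence divided by renilla, normalised to the plate median, then turned into a robust z-score for each replicate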
Scale: TNF reporter robust z-score: higher = stronger TNF reporter response to LPS
Hit rule: 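a well is active when its z-score exceeds 2.8 or falls below -1.5; control wells carry no call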
The whole screen tested about 18,000 reagents; below is a part drawn at random. About 2,900 of all reagents (16%) count as active. 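Calls are made per well; low scores hint the gene aids the LPS response, high scores that it dampens it.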 A number with no mark means an inactive call. Repeated entries: four replicate wells of each siRNA pool. No sequences are given here.

gene	TNF reporter robust z-score
GRIK5 (GeneID 2901)	0.01
GRIK5 (GeneID 2901)	0.19
GRIK5 (GeneID 2901)	-1.09
GRIK5 (GeneID 2901)	-0.38
OSR1 (GeneID 130497)	-0.75
OSR1 (GeneID 130497)	0.04
OSR1 (GeneID 130497)	0.69
OSR1 (GeneID 130497)	-0.17
HCG27 (GeneID 253018)	-0.47
HCG27 (GeneID 253018)	0.8
HCG27 (GeneID 253018)	0.7
HCG27 (GeneID 253018)	0.47
ALKBH7 (GeneID 84266)	-0.73
ALKBH7 (GeneID 84266)	-0.43
ALKBH7 (GeneID 84266)	-0.06
ALKBH7 (GeneID 84266)	-1.74 (active)
PCGF5 (GeneID 84333)	-1
PCGF5 (GeneID 84333)	-0.46
PCGF5 (GeneID 84333)	-0.53
PCGF5 (GeneID 84333)	0.32
ACADM (GeneID 34)	-1.01
ACADM (GeneID 34)	0.61
ACADM (GeneID 34)	-0.69
ACADM (GeneID 34)	-0.42
ZNF358 (GeneID 140467)	0.34
ZNF358 (GeneID 140467)	-0.86
ZNF358 (GeneID 140467)	0.19
ZNF358 (GeneID 140467)	-0.44
ADAMTS4 (GeneID 9507)	0.33
ADAMTS4 (GeneID 9507)	0.54
ADAMTS4 (GeneID 9507)	0.01
ADAMTS4 (GeneID 9507)	-0.98
ZNF345 (GeneID 25850)	0.18
ZNF345 (GeneID 25850)	0.66
ZNF345 (GeneID 25850)	-0.12
ZNF345 (GeneID 25850)	1.01
KIF16B (GeneID 55614)	-1.16
KIF16B (GeneID 55614)	-1.63 (active)
KIF16B (GeneID 55614)	-0.94
KIF16B (GeneID 55614)	-0.46
EIF1 (GeneID 10209)	-1.27
EIF1 (GeneID 10209)	-1.44
EIF1 (GeneID 10209)	-1.72 (active)
EIF1 (GeneID 10209)	-1.45
NCR1 (GeneID 9437)	-0.16
NCR1 (GeneID 9437)	0.08
NCR1 (GeneID 9437)	0.17
NCR1 (GeneID 9437)	0.29
MDM4 (GeneID 4194)	-1.07
MDM4 (GeneID 4194)	-1.21
MDM4 (GeneID 4194)	-0.35
MDM4 (GeneID 4194)	-0.69
KRABD2 (GeneID 124751)	1.36
KRABD2 (GeneID 124751)	1.39
KRABD2 (GeneID 124751)	0.57
KRABD2 (GeneID 124751)	1.54
ZBTB7C (GeneID 201501)	0.49
ZBTB7C (GeneID 201501)	1.81
ZBTB7C (GeneID 201501)	3.15 (active)
ZBTB7C (GeneID 201501)	1.04
HACD3 (GeneID 51495)	-0.57
HACD3 (GeneID 51495)	-0.03
HACD3 (GeneID 51495)	-0.18
HACD3 (GeneID 51495)	1.39
OR2T5 (GeneID 401993)	-0.81
OR2T5 (GeneID 401993)	-1
OR2T5 (GeneID 401993)	-1.18
OR2T5 (GeneID 401993)	0.27
HYCC1 (GeneID 84668)	0.98
HYCC1 (GeneID 84668)	0.13
HYCC1 (GeneID 84668)	0.11
HYCC1 (GeneID 84668)	2.26
ASTN1 (GeneID 460)	0.52
ASTN1 (GeneID 460)	2.63
ASTN1 (GeneID 460)	1.91
ASTN1 (GeneID 460)	1.41
RUNDC1 (GeneID 146923)	-0.11
RUNDC1 (GeneID 146923)	-1.01
RUNDC1 (GeneID 146923)	0.21
RUNDC1 (GeneID 146923)	0.64

Continued:
gene	TNF reporter robust z-score
OXTR (GeneID 5021)	-0.63
OXTR (GeneID 5021)	1.06
OXTR (GeneID 5021)	-0.78
OXTR (GeneID 5021)	0.28
ZNF205 (GeneID 7755)	-1.87 (active)
ZNF205 (GeneID 7755)	-0.79
ZNF205 (GeneID 7755)	-1.4
ZNF205 (GeneID 7755)	-0.55
PDGFRL (GeneID 5157)	-1.83 (active)
PDGFRL (GeneID 5157)	-0.63
PDGFRL (GeneID 5157)	-0.4
PDGFRL (GeneID 5157)	-0.32
EXOC3L4 (GeneID 91828)	0.16
EXOC3L4 (GeneID 91828)	-0.07
EXOC3L4 (GeneID 91828)	-0.3
EXOC3L4 (GeneID 91828)	-0.43
HAUS8 (GeneID 93323)	-0.06
HAUS8 (GeneID 93323)	-0.17
HAUS8 (GeneID 93323)	-1.02
HAUS8 (GeneID 93323)	0.06
GIT2 (GeneID 9815)	-0.75
GIT2 (GeneID 9815)	-0.56
GIT2 (GeneID 9815)	0.34
GIT2 (GeneID 9815)	-0.07
P2RY10 (GeneID 27334)	-0.05
P2RY10 (GeneID 27334)	1.24
P2RY10 (GeneID 27334)	1.05
P2RY10 (GeneID 27334)	1.51
HCRTR1 (GeneID 3061)	1.38
HCRTR1 (GeneID 3061)	1.94
HCRTR1 (GeneID 3061)	1.56
HCRTR1 (GeneID 3061)	1
TRIM16L (GeneID 147166)	-0.14
TRIM16L (GeneID 147166)	-0.26
TRIM16L (GeneID 147166)	1.11
TRIM16L (GeneID 147166)	0.66
ARF5 (GeneID 381)	-0.89
ARF5 (GeneID 381)	-1.05
ARF5 (GeneID 381)	-1.16
ARF5 (GeneID 381)	-1.34
OR10H5 (GeneID 284433)	-0.01
OR10H5 (GeneID 284433)	-0.19
OR10H5 (GeneID 284433)	0.02
OR10H5 (GeneID 284433)	0.43
MATN4 (GeneID 8785)	0.12
MATN4 (GeneID 8785)	-0.19
MATN4 (GeneID 8785)	-0.04
MATN4 (GeneID 8785)	-0.07
ALDOC (GeneID 230)	3.44 (active)
ALDOC (GeneID 230)	0.12
ALDOC (GeneID 230)	-0.62
ALDOC (GeneID 230)	-0.36
NPY (GeneID 4852)	-0.98
NPY (GeneID 4852)	-0.38
NPY (GeneID 4852)	-0.87
NPY (GeneID 4852)	-1.34
TOB2 (GeneID 10766)	1.29
TOB2 (GeneID 10766)	1.06
TOB2 (GeneID 10766)	-0.37
TOB2 (GeneID 10766)	0.55
